Results are given in words; binding and its absence hold for the method and conditions named. Binding calls can cover weak binding; strength is not graded here.
Target: N-CoR (nuclear receptor corepressor), endogenous protein of the transfected cells (UniProt O75376)
Test: anti-Flag column purification from PEAK Rapid cells, Western blotting

Chains of the proteins cited; added tags and fusions are not shown. Lines headed by an entry give the natural chain unless they say otherwise; changes in a name come on top.
UniProt O75376: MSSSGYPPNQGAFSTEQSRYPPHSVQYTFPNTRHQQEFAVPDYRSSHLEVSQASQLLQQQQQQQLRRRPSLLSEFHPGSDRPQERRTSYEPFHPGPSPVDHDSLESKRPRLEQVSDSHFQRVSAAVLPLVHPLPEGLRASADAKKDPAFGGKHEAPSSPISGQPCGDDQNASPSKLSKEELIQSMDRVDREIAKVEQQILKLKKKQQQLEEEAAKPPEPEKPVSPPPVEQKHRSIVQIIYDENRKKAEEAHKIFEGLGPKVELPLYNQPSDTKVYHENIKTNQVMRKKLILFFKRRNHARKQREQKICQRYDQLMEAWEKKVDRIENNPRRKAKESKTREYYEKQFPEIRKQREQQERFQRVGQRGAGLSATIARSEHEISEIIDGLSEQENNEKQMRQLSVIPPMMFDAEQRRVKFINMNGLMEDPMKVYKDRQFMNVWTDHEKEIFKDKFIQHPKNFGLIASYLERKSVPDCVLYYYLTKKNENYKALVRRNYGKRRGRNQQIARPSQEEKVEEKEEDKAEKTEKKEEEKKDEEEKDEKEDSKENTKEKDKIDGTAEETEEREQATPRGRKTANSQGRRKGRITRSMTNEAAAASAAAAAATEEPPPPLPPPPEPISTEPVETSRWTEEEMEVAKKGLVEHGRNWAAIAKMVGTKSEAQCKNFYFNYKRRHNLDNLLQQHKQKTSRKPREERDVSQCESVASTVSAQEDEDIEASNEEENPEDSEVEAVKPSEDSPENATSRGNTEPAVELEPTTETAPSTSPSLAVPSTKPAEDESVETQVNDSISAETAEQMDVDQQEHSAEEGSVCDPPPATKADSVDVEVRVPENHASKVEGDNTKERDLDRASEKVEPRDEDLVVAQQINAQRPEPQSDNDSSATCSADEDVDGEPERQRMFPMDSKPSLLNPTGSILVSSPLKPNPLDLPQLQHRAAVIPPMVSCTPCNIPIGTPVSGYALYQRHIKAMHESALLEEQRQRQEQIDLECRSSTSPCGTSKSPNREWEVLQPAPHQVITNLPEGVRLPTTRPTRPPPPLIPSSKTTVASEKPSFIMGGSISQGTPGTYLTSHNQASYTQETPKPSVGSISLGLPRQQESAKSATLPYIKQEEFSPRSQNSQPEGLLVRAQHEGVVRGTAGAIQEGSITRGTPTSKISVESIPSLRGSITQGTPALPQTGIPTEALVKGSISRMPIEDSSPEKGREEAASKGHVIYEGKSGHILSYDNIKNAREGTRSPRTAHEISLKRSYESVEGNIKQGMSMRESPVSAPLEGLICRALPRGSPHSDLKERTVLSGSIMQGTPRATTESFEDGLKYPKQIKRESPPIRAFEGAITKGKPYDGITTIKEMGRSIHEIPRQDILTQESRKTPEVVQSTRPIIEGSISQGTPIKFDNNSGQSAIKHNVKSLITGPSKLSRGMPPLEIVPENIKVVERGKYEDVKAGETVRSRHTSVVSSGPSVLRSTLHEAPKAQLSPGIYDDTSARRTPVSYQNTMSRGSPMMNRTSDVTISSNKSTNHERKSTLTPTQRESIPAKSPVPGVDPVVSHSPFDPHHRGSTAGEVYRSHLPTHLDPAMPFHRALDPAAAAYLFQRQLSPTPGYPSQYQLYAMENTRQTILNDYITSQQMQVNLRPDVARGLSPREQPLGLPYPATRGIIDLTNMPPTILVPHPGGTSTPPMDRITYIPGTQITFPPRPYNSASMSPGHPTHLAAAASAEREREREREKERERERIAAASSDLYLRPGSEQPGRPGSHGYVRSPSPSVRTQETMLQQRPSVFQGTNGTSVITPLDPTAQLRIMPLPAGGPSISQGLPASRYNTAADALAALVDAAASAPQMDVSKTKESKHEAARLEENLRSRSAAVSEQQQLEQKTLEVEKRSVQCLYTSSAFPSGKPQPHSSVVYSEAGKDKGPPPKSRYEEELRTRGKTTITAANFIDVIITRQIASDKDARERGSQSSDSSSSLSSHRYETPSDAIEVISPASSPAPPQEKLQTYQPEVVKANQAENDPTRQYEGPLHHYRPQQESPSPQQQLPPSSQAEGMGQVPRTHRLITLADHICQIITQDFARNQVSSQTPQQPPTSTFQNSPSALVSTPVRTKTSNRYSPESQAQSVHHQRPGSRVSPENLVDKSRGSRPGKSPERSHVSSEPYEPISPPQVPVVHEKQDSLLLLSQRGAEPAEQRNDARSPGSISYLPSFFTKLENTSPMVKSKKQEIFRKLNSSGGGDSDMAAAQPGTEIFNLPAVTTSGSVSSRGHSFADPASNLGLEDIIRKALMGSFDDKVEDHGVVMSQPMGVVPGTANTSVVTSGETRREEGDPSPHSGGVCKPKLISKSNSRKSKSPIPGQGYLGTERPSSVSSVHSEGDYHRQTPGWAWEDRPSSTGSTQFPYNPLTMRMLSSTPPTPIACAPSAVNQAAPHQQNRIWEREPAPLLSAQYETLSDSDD
UniProt Q8WUI4: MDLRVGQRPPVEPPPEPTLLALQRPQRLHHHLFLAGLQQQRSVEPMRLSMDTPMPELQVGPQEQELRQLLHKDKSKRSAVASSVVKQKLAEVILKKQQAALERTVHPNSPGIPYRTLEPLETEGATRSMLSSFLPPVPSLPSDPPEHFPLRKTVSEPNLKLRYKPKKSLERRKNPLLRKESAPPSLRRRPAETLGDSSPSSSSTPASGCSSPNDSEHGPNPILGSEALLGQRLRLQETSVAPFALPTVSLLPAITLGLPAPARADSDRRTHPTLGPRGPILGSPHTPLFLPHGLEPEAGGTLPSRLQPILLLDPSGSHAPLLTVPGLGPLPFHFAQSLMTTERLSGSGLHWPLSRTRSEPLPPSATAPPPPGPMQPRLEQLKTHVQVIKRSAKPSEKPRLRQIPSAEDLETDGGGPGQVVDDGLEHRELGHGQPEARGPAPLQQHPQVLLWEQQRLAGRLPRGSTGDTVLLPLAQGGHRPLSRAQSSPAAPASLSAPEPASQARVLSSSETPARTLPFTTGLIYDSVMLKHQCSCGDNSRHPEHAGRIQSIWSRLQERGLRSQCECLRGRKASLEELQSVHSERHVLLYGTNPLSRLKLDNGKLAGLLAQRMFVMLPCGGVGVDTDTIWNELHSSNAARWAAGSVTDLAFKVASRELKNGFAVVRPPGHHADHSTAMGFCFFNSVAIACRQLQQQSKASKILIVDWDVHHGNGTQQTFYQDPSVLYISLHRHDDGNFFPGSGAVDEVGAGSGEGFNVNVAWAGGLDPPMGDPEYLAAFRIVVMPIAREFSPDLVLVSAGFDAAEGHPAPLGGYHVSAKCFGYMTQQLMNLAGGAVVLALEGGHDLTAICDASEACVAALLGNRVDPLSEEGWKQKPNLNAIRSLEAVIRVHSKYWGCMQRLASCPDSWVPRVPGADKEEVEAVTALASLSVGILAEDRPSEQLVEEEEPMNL

Which binding does the source give for “HDAC7 with a Flag sequence added to the C-terminal (expressed from pEAK-HDAC7, pMH141) (from UniProt Q8WUI4) (enzyme)” here?
Its binding is “binds”.

Source: patent US20070123452A1, “Method of selecting novel immunosuppressant” (Astellas Pharma Inc., priority 2002, published 2007)
